Experimental data reported in paper PMC8627553.
No constants are given. Whether binding was seen depends on the method and setting. In cells and extracts the contact can be indirect. Some results given as binding are weak or reduced against the parent protein; the word gives no strength. Where a sequence is shown, tags or fusion partners need not be part of it.

Sequences of proteins named here, by UniProt entry; tags and fusion partners are left off.
UniProt P0CW70: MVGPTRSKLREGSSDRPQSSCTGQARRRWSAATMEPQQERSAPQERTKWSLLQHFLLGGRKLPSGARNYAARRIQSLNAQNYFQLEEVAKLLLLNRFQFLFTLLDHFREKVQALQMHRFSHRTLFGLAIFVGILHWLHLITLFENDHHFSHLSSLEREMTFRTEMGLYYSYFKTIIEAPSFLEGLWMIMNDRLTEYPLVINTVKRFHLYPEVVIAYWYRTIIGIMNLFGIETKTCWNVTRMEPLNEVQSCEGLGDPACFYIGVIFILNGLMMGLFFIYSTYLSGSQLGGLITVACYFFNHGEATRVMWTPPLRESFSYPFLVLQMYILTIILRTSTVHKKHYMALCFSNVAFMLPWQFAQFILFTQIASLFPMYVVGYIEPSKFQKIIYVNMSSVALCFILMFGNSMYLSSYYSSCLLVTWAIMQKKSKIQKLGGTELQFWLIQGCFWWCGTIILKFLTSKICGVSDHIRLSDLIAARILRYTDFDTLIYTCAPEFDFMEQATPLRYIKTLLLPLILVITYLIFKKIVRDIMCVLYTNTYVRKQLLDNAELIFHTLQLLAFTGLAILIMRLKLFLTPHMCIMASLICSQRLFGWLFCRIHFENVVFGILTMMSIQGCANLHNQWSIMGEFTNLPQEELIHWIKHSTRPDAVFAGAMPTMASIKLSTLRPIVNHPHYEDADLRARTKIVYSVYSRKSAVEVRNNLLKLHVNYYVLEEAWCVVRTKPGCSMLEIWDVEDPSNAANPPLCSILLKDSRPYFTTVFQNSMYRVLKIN

T1: FAM209-FLAG (family with sequence similarity 209, FLAG knock-in) (mouse (endogenous in testis)) (UniProt A2APA5)
T1 sequence: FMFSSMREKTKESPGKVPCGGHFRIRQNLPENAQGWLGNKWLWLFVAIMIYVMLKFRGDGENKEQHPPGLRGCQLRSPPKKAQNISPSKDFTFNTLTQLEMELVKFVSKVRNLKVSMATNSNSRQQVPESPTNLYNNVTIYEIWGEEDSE


Target: T1, FAM209-FLAG (family with sequence similarity 209, FLAG knock-in) (mouse (endogenous in testis))
Experiment: co-IP; anti-FLAG immunoprecipitation of FAM209-FLAG from testis lysate (CHAPS buffer), western blot with anti-DPY19L2 or anti-CLGN

binding | Molecule
binds | Probable C-mannosyltransferase DPY19L2 (from UniProt P0CW70 1-773)
binds | calmegin (CLGN) (protein, UniProt P52194 20-611) DFMDDGVEVEDFSENSDESNIKDEPSSGTFKYKTPQPIGEVYFTETFDSGNLAGWVLSKAKKDDMDSEIAIYDGRWEIEELKENQVPGDRGLVLKSKAKHHAIAAVLEKPFIFADKPLIVQYEVNFQDGIDCGGAYIKLLADTGDLILENFYDKTSYTIMFGPDKCGEDYKLHLIFRHKHPKTGVFEEKHAKPPDVDLKEFFTDRKTHLYTLVMNPDDTFEVLIDQKVVNQGTLLDDVVPPINPPREIDDPSDKKPEEWDDRAKIPDPTAVRPEDWDENEPAQIEDSSAVKPDGWLDDEPKFIPNPKAEKPEDWSDDMDGEWEAPHIPNPACQIGCGEWKPPMIDNPKYKGIWRPPMINNPNYQGLWSPQKIPNPDYFEDDHPFLLTSFSALGLELWSMTPDIYFDNFIICSEKEVADQWATDGWELKIMVANANEPGVLRQLVIAAEERPWLWLMYLVMAGLPVALVASFCWPRKVKKKYEDTGPKKTELCKLQSKAALEQEAEEEKAPEKPEDVQEEKKPGEAEVVTVEKEVIGEPEEKSKEDRETLEGQEEVSKLSKSGSEDEMKDADESPGSGDAPLKSLRKRRVRKD
